In publication PMC7028368:
No constants are given. Whether binding was seen depends on the method and setting. Binding seen in cells or lysates may run through a third protein. Some results given as binding are weak or reduced against the parent protein; the word gives no strength.

By UniProt entry, the sequences of proteins in these tests, tags left out. Residues count along the entry.
UniProt P33175, residues 677-1027: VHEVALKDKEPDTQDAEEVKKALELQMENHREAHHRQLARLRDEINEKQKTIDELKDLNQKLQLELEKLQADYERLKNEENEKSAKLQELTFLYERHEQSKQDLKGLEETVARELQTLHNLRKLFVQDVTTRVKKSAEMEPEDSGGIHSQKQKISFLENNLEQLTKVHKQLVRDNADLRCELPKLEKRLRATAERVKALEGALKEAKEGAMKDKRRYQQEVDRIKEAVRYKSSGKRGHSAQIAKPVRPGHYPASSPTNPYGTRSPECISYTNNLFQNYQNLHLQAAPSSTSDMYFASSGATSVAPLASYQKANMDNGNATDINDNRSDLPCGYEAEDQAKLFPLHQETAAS
UniProt Q61768, residues 680-963: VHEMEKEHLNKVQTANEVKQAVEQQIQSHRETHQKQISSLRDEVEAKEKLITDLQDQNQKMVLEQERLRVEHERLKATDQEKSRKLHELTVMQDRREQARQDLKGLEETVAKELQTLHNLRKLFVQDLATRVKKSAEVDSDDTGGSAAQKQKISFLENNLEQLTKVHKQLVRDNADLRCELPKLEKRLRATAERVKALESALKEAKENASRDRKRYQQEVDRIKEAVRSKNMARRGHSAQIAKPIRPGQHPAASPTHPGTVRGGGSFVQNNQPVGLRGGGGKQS
UniProt P28738, residues 681-956: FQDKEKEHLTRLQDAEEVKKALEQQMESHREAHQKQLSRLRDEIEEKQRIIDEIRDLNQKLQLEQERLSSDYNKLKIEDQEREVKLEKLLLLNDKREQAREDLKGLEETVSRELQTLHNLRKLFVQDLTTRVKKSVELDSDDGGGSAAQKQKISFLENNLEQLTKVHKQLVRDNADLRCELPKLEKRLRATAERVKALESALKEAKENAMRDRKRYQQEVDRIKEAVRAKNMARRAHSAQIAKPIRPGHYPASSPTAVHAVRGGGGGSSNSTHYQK

Legend:
Test in all cases: pull-down; equimolar GST-fused carboxyl-terminal KIF5 fragments with glutathione sepharose beads and pre-cleared mouse forebrain lysate (Tris buffer: 20 mM Tris, 150 mM NaCl, 1 mM EDTA, 1 mM EGTA, 5 mM NaF, 0.5% NP40), 4°C for 2 hr; Western blot; only the target purified
[1] = target: GST-fused KIF5A (a.a.677–1027) (mouse) (UniProt P33175)
[2] = target: GST-fused KIF5B (aa 680–963) (mouse) (UniProt Q61768)
[3] = target: GST-fused KIF5C (aa 681–956) (mouse) (UniProt P28738)

binding [1]: binds
binding [2]: binds
binding [3]: binds
B1: Ras GTPase-activating protein-binding protein G3BP2 (protein, UniProt P97379 1-482)
chain: MVMEKPSPLLVGREFVRQYYTLLNKAPEYLHRFYGRNSSYVHGGVDASGKPQEAVYGQNDIHHKVLSLNFSECHTKIRHVDAHATLSDGVVVQVMGLLSNSGQPERKFMQTFVLAPEGSVPNKFYVHNDMFRYEDEVFGDSEPELDEESEDEVEEEQEDRQPSPEPVQENANSAYYDAHPVTNGIEEPLEESSHEPEPEPESETKTEELKPQVEEKHLEELEEKSATPPPAEPASLPQEPPKAFSWASVTSKNLPPSGTVSSSGIPPHVKAPVSQPRVDAKPEVQSQPPRVREQRPRERPGFPPRGPRPGRGDMEQNDSDNRRIIRYPDSHQLFVGNLPHDIDENELKEFFMSFGNVVELRINTKGVGGKLPNFGFVVFDDSEPVQRILIAKPIMFRGEVRLNVEEKKTRAARERETRGGGDDRRDIRRNDRGPGGPRGIVGGGMMRDRDGRGPPPRGGMTQKLGSGRGTGQMEGRFTGQRR
